Some entries share one result that the patent states for a list of compounds.
System: p21 mRNA
Assay: drug-induced p21 mRNA expression in whole blood of healthy adults
Type: cell-based, human
Conditions: 20 μM BLM or 100 μM VP-16, 4 hours at 37° C., 3 individuals each (FIG. 6)
Description: Blood was obtained from healthy adults and from two leukemic non-Hodgkin's malignant lymphoma patients. U937, KG-1, and Jurkat cells were obtained from American Type Culture Collection (ATCC, Manassas, Va.), and maintained in RPMI 1640 supplemented with 10% fetal calf serum. Of these, U937 cells are a human histiocytic lymphoma cell line, KG-1 cells are a human bone marrow myelogenous leukemia cell line, and Jurkat cells are a human T-cell lymphoblast-like, leukemia derived cell line. […] For human experiments, blood aliquots were stimulated with various anti-cancer drugs at 37° C. for 2 hours, then both p21 and BAX mRNA were measured. The anti-cancer drugs used in this study were clinical drugs, and the concentration of each drug was adjusted to typical blood levels 3-6 hours after intravenous administration.
The mRNA and cDNA were prepared from whole blood. In brief, home-made 96-well filterplates were placed over collection plates, and 150 μl 5 mM Tris, pH 7.4, was applied. Following centrifugation at 120×g for 1 min at 4° C., 50 μl of blood samples were applied to each well and immediately centrifuged at 120×g for 2 min at 4° C., followed by washing of each well with 300 μl PBS once with centrifugation at 2000×g for 5 min at 4° C. […] The Ct was determined by analytical software (SDS, ABI). […]

## COc1cc([C@@H]2c3cc4c(cc3[C@@H](O[C@@H]3O[C@@H]5CO[C@@H](C)O[C@H]5[C@H](O)[C@H]3O)[C@H]3COC(=O)[C@H]23)OCO4)cc(OC)c1O [VP-16, etoposide]
  p21 induction, ΔCt: more than 2 ΔCt

Reference: patent US20090011410A1, “METHOD FOR TAILORING ADMINISTRATION OF DRUGS BY QUANTITATION OF MRNA” (priority 2004, published 2009)
